# Measurements taken from PubChem BioAssay AID1347426 (Functional Genomics Laboratory (NCATS/FGL), 2020).
# Out of some 31,000 sequences screened, about 1,400 (4.5%) were called active.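 The calls were made as follows: active = median seed-adjusted z-score above 1 or below -1; inactive = the rest.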 The list shows a part of the results.
# Assay: Novel Modifiers of Survival Motor Neuron (SMN) Protein: Gene Identification via Genome-wide siRNA Screen;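 also: luminescence tracks full-length SMN protein made from the SMN2 reporter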
# Conditions: HEK293T SMN2-luciferase reporter, siRNA knockdown, 72 h; actives lie on both sides
# Method in brief: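 HEK293T cells stably carrying an SMN2 promoter/splicing cassette–luciferase reporter were reverse-transfected with 1 pmol siRNA per well (druggable-genome library, 3 siRNAs per gene) and grown 72 h at 37 °C. Luminescence, normalized to negative-control siRNA and log10-transformed, was scored as MAD.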
row,Sequence,median seed-adjusted z-score
1,GGUCUACGCGUUCUACGAGTT against GPR150,inactive: -0.129
2,GACACUCGCAGGAAAAUUATT against SEC14L3,inactive: 0.308
3,CAGUGUUCCUGAAACCGCUTT against ADAR,inactive: 0.267
4,GGAUCACCAACAAUCGCAATT against PDE6A,active: 1.25
5,GGAACUCGAUCGUAUCAUUTT against AR,inactive: -0.559
6,GAAGCUUAAUGAAGAUAAATT against FKBP3,inactive: -0.102
7,AGAAGUUUUGUACAGAGAATT against SREBF1,inactive: -0.0469
8,CUGUCUUUCACGUCAAGUATT against NOC4L,inactive: -0.315
9,GGAUGACGAUGCAAACCAUTT against ZNF776,inactive: -0.394
10,GCAGCUCGGUCUCUGACUATT against EDG1,inactive: -0.316
11,GCCUAACUGCUCUUCGUAUTT against ACVR1C,inactive: -0.0005
12,GCUGUACACUUAGCAUGUATT against METAP1,inactive: -0.139
13,CCGAAUCAAUUGAUCAGAATT against FNBP1,inactive: -0.168
14,GGGUUGGUUUGGGCCUGAATT against SOX12,inactive: 0.478
15,GAAUGACCUGGGAGACAAATT against TXNDC5,inactive: -0.753
16,GCUUCUCGAUGGACAGGAATT against HDGF2,inactive: 0
17,CAGCAUCACAAGAUACAUATT against ZNF250,inactive: -0.00985
18,GCACGUCUCUACUUCAUCATT against EXTL2,inactive: -0.0568
19,GCUCCAAGAAGACACCGUATT against SIN3B,inactive: 0.509
20,GCAGUUGAGCUAUCACUAUTT against NFXL1,inactive: 0.118
21,GAAUUUCACAAAGCAAAGATT against TAAR1,inactive: 0.0724
22,GAAGUAAUUGAAAUCAUGATT against HNRNPA1L2,inactive: 0.732

row,Sequence,median seed-adjusted z-score
1,GUUCGGCUUUGGGUAUCAATT against PLK3,inactive: -0.116
2,CGAACAGUCCAAGAAAUGUTT against GALNT12,inactive: 0.188
3,CAGUGGAUAUCACAGGCUATT against THAP7,inactive: -0.0317
4,CAACAUCUAUGAUUGGAAUTT against RFXANK,inactive: -0.0665
5,CAUUCGGAAUAUCAACAAATT against GRLF1,inactive: 0.0307
6,GAAUCUGGGAUGUUAACCATT against IL1RN,inactive: 0.283
7,GGAUAAAGAUGGUGAUAGATT against MIB1,inactive: 0
8,GACCCAUGAUUUACUGCUATT against PCDHB6,inactive: 0
9,CAUCCAAAAUUAGCCCGUUTT against TLR1,inactive: 0
10,CAAUGUUUGUCUGGUCAUATT against ZDHHC2,inactive: 0.133
11,ACAUCUUGCUGCAUCAAGATT against GFOD2,inactive: -0.0447
12,GAGCGACGGCGAAACAAGATT against MEIS3,inactive: 0.207
13,GGAUACAGGAGAAAACGCATT against WWTR1,inactive: -0.579
14,GUAUCAAGAGAUUCACUAATT against USP39,inactive: 0.821
15,CCACCGAUUUGAUCCCAAATT against NAPSA,inactive: -0.336
16,CCUAAUCAAGUACAACAUATT against AP4E1,inactive: 0
17,CAAGCACUAUCAUUGCGAATT against RPA1,inactive: -0.27
18,CAAUGGUAUUGCUACAUUUTT against ATRX,inactive: -0.158
19,CGCGCUUCGUAUUUCAGAATT against MUS81,inactive: 0
20,CAACAAGCGUAAGACCAAATT against SYTL5,inactive: 0.192
21,GACUGUGAUUGACAAGGGATT against ADAL,inactive: 0.145
22,GGACUGGACUUACGAUGAUTT against CHID1,inactive: 0.199

row,Sequence,median seed-adjusted z-score
1,GCCGCAACGUGUUUCUGUUTT against CNR1,inactive: 0.0359
2,GCAAGGAAAUCAAAGACGATT against ITLN1,inactive: 0.23
3,CGAUUAUGGAACAACCUAUTT against SORCS1,inactive: -0.123
4,GCAUGUCCAAUGUUCCAUATT against ACAT1,inactive: -0.848
5,GCGGGAUCCUGAACCUGAATT against PLA2G2D,inactive: 0.361
6,CGAUAUAUGUGAUAUGCGUTT against ZNF740,inactive: -0.914
7,GAAGCAUGAUGGACAGGAUTT against ISOC1,inactive: 0.104
8,GAGUUUAACUACCUGGAGATT against SEMA6B,inactive: 0.311
9,GGACCGGCCUUUUCGAAAATT against SNRNP35,inactive: 0.172
10,CCAUCUUCGGCAUCCAUAATT against SLC16A2,inactive: -0.302
11,ACAUUGUGAAGAUCGAAAATT against SLC14A2,inactive: 0.00107
12,GGACUGUUGGAAACUAUCATT against IKBKAP,inactive: -0.0316
13,GCCUCAAAGUGUACAUCGATT against B3GNT8,inactive: 0.236
14,GAUUGGAAUUAUUGAUUGATT against VAMP7,inactive: -0.00527
15,GAAGUUCAUACUAAGCGUATT against TPR,active: -1.03
16,CCAUUUCGCAAAGCUCAGATT against IFNAR1,inactive: 0.0327
17,AGAUGAUCCUGUCCAGUGATT against PRKD2,inactive: 0.00493
18,CAUGUACACCAUACAUAGATT against CHST3,inactive: 0.319
19,CAAGUCAGCUGGUUCGGUATT against IDE,inactive: -0.081
20,CUACCAGAACUAUUACGAUTT against PSTPIP1,inactive: -0.342
21,UAACAACAGUGAGAGAGCATT against UQCRH,inactive: 0.458
22,CGCUGCCUGUACCACCAUUTT against WFDC5,inactive: 0

row,Sequence,median seed-adjusted z-score
1,CAUAUAUGUUUCUACGAAATT against PDK3,inactive: 0.232
2,GGCUGAUGUUGAUCUGCGATT against GRLF1,inactive: 0.0307
3,GCCUUUGACCUGUCAGUGUTT against ASMT,inactive: -0.322
4,CAUCUGUUGAGUUGUAAAUTT against NDUFC1,inactive: 0
5,GGAUCCAAGCAUUCGAAUATT against SLC4A10,inactive: 0.026
6,CCAGACUGCUAGAACAAGATT against OXNAD1,inactive: 0.36
7,GGGUCACAGUGAAGCAUCUTT against RRBP1,inactive: -0.254
8,GACUGGUCCUGUUAAAGAATT against GATAD2B,inactive: 0.218
9,GCAUCCGAGAUGUGACUAATT against DIS3,inactive: 0.266
10,GAAAACUACUUCAACUAAATT against PCDH17,inactive: 0.451
11,GACGAGAAGAUGUUAGUAATT against PKN2,inactive: 0.383
12,CAUCAAUCCUCAUCAAGGATT against SLC9A9,inactive: 0.143
13,GAGACCAAAUCAACAAUGATT against 3-Sep,inactive: 0.0683
14,GCUCAAAGGUCUCACCUGCTT against SLC35A2,active: 1.06
15,GCGAUGUUCAGAUACUAGATT against ACADM,inactive: 0.127
16,GAUUGAAGUUAACAAUGCATT against UBA6,inactive: 0.0251
17,GAAGCUAAUUUACCUUGUATT against UBE2F,inactive: 0
18,CAUCGAAGCUAUUUCGAAATT against EFHA2,inactive: 0.166
19,CCAAAUUCAUUGCCCGCUATT against XAB2,inactive: 0.0628
20,CGCAAGUUGGUGAUCCUAATT against PPM2C,inactive: 0.518
21,GGAUGUUAGGAUUCGAAAUTT against LIMCH1,inactive: 0.125
22,GCCGGCCUGUGAAAUAUGATT against MAP3K3,inactive: -0.182

row,Sequence,median seed-adjusted z-score
1,AGAUUUGUUUUGGACUGUATT against PAFAH1B2,inactive: 0.0991
2,GCUACGGCGUGGACAAGAATT against RELB,active: 1.16
3,GCACACCAUUUGCUUCCAATT against GPR182,inactive: -0.136
4,CUGCGAUGAUUGACACUGATT against MAP3K7IP1,inactive: 0
5,CUCUCUUCGUAGAUCAAGATT against SFRS7,inactive: 0.44
6,CAGUAUUGAGGACACCUAUTT against SLC4A2,inactive: -0.539
7,UGAUGGCUCUAAAAGAUACTT against ZNF251,inactive: -0.851
8,CGGUUGGAGUUGGAUGACATT against TRIB3,inactive: 0.00635
9,GGCUGAAUGUAUACAUGCATT against CCNE1,inactive: -0.693
10,GCAGGUCAGCAUCACCUAUTT against PRSS8,inactive: -0.275
11,UCAUCUACCUGAUGCGUAUTT against TAF6,active: -1.36
12,CGAUGAUCUGGACAUCUUUTT against SMAP1,inactive: -0.201
13,CUUCAGGACAGAAAAGUCATT against TXNRD2,inactive: 0.459
14,AGCCGACACUGGUUCUUCATT against PFAS,inactive: 0.0344
15,UCAAGGGAGUGAUUCAGUATT against GALK1,inactive: 0.315
16,GCCCGAACCUGUAACUUGATT against DRG1,inactive: 0.336
17,CCUUAAAGGAGCAAUCAAATT against CDK7,inactive: -0.524
18,CCUGAGUUGAUACAAGUGATT against SLC1A5,inactive: -0.104
19,GAGCCUUAGGAAUACCCGATT against NCOA2,inactive: 0.149
20,GGCAUGACUUUGACAGACUTT against KCNJ12,inactive: -0.641
